HELM strings list residues between dots; [ac] is acetyl, [am] amide, other brackets name non-standard units.
Test: general procedure: Boc solid-phase peptide synthesis; Boc-Lys[Z(2Cl)]-chloromethyl resin, 0.33 mmol/g
Conditions: whole synthesis
[1] = scale of the general procedure 1.50 g resin

Substance: PEPTIDE1{D.S.D.G.K}$$$$V2.0
- crude mass: 360 mg
- isolated mass: 46.8 mg
- final purity (method not given) [1]: 97%
- isolated yield [1]: 13%
